# Screen size: about 400,000 compounds; about 13,000 (3.2%) were called active. This list was built around the results that the source calls inconclusive (neither active nor inactive); the mix of calls is not that of the screen. Calls come from the whole dose curve; as a rule, active = well fitted cell-killing curve with a large enough effect; inconclusive = small, poorly fitted or top-dose-only effect, or effect the other way; inactive = flat fitted curve, though single readings scatter. A potency beside an inconclusive call is a rough fit, not a confirmed value.
# Experiment: qHTS assay for MDR1-selective chemotherapeutics: Primary screen using the drug-selected MDR subline cells KB-V1; note: nearly all actives have a fitted effect of over 60% in size
# Details: KB-V1 MDR cells viability, CellTiter-Glo, 72 h; activity change, negative = cytotoxicity: at 46.1 µM (top of the series)
# Method in brief: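 KB-V1 MDR subline cells in DMEM (phenol-red free, 10% FBS) exposed to compounds in qHTS concentration series for 72 h at 37 degrees C. Viability read by CellTiter-Glo luminescence; concentration-effect curves fitted after normalization and correction.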
# % is set by controls: 0 for no effect and ±100 for the full control effect; potency is the fitted concentration of half-maximal effect.
SMILES,"activity change, negative = cytotoxicity",Potency
CC(=O)Cc1nsc(NC(=O)c2ccc(-c3cc(C(F)(F)F)ccc3Cl)o2)n1,inactive: -12%,–
Cc1cc(NC(=O)CCC(=O)N(CC(=O)NC2CCCC2)c2ccc(Cl)cc2)no1,inactive: -3.4%,–
CCC1CSC(Nc2ccc(C(=O)/C=C/c3ccc(Br)cc3)cc2)=N1 (centres undefined),–,"inconclusive: 29.1 µM [cytotoxic, single point]"
CCCCc1c(-c2ccc(F)cc2)ncn1CCc1ccccc1OC,–,active: 11.6 µM
CC(=O)Oc1c(Cl)cc(N(C(C)=O)S(=O)(=O)c2ccccc2)c2ccccc12,–,"inconclusive: 18.4 µM [cytotoxic, single point]"
COc1ccccc1NC(=O)CSc1oc(-c2cccs2)nc1S(=O)(=O)c1ccc(Br)cc1,inactive: 1.51%,–
CCOC(=O)c1ccc(N2CSC3=C(C#N)C(c4cccs4)CC(=O)N3C2)cc1 (centres undefined),inactive: -9.66%,–
COc1ccccc1C(CNC(=O)c1cc(S(=O)(=O)N2CCOCC2)ccc1C)N1CCCC1 (centres undefined),inactive: -20.7%,–
Cc1csc(NC(=O)CSc2ccc(-c3ccccc3)nn2)n1,–,active: 23.1 µM
CC(C(=O)Nc1cc([N+](=O)[O-])ccc1Cl)N1CCN(c2ccccc2)CC1 (centres undefined),–,"inconclusive: 29.1 µM [rising, single point]"
COc1ccc(C(=O)NCC(C)CN(C)C)cc1 (centres undefined),–,"inconclusive: 10.3 µM [rising, partial curve, poor fit]"
COc1ccccc1CNC(=O)Cn1ncc2c3ccccc3n(Cc3ccccc3C)c2c1=O,inactive: 5.44%,–
CCn1c(SCC(=O)NNC(=O)c2ccc(C)cc2)nnc1-c1ccncc1,inconclusive: 31.3%,–
CCOC(=O)c1c(N2C(=O)C3C4C=CC(C4)C3C2=O)sc2c1CCC(C)C2 (centres undefined),–,"inconclusive: 25.9 µM [cytotoxic, single point]"
CC(NC(=O)Nc1ccccc1C(F)(F)F)c1c(-n2cccc2)sc2c1CCCC2 (centres undefined),inactive: -15.7%,–
CCOC(=O)C1(CCOc2ccccc2)CCN(S(=O)(=O)N(C)C)CC1,–,"inconclusive: 29.1 µM [cytotoxic, single point]"
CCOCCCN(C(=O)c1ccco1)C(C(=O)NC1CCCC1)c1ccc(OC)cc1 (centres undefined),–,"inconclusive: 6.51 µM [cytotoxic, partial curve]"
O=C(NCc1cccnc1)c1cccn1-c1ncc(C(F)(F)F)cc1Cl,–,"inconclusive: 4.61 µM [cytotoxic, full curve, poor fit]"
CCOc1ccc(S(=O)(=O)N2CCN(c3c(C)cccc3C)CC2)c2ccccc12,–,"inconclusive: 14.6 µM [cytotoxic, partial curve, poor fit]"
CN(C)/C=C1\Oc2ccc3ccccc3c2C1=O,–,"inconclusive: 14.6 µM [cytotoxic, partial curve, poor fit]"
CS(=O)(=O)c1ccc2nc(NC(=O)C3=NN(c4ccccc4)C(=O)CC3)sc2c1,–,"inconclusive: 29.1 µM [rising, single point]"
CCOc1ccccc1NC(=O)C1CCN(S(=O)(=O)c2ccccc2)CC1,–,"inconclusive: 18.4 µM [cytotoxic, single point]"
O=C(NCCc1ccc(Cl)cc1)C1CCC(CNc2nc(=S)[nH]c3ccccc23)CC1 (centres undefined),–,"inconclusive: 8.2 µM [cytotoxic, partial curve]"

# Fetched by compound from above, four records:
SMILES,"activity change, negative = cytotoxicity",Potency
CS(=O)(=O)c1ccc2nc(NC(=O)C3=NN(c4ccccc4)C(=O)CC3)sc2c1,–,"inconclusive: 29.1 µM [rising, single point]"
COc1ccccc1NC(=O)CSc1oc(-c2cccs2)nc1S(=O)(=O)c1ccc(Br)cc1,inactive: 1.51%,–
COc1ccc(C(=O)NCC(C)CN(C)C)cc1 (centres undefined),–,"inconclusive: 10.3 µM [rising, partial curve, poor fit]"
CCOC(=O)c1c(N2C(=O)C3C4C=CC(C4)C3C2=O)sc2c1CCC(C)C2 (centres undefined),–,"inconclusive: 25.9 µM [cytotoxic, single point]"

# Next part

SMILES,"activity change, negative = cytotoxicity",Potency
N#Cc1c(N)n(CCNC(=O)c2ccc(Cl)cc2)c2nc3ccccc3nc12,inactive: -0.907%,–
COc1ccc(-c2[nH]ncc2CN2CCC(O)(c3ccc(Cl)cc3)CC2)cc1,–,"inconclusive: 18.4 µM [cytotoxic, single point]"
CC(C)c1nnc(NC(=O)CCc2ccccc2)s1,inactive: 0.975%,–
CCN(CC)c1ccc(NC(=O)COc2ccccc2C#N)cc1S(=O)(=O)Nc1ccc(OC)cc1,–,active: 3.66 µM
COc1cc2c(cc1NC(=O)CN(C)Cc1cccc(OC)c1OC)oc1ccccc12,–,"inconclusive: 23.1 µM [cytotoxic, single point]"
CCOc1ccc(-n2c(Cc3cc(=O)[nH]c(=O)[nH]3)nnc2SC(C)C)cc1,–,"inconclusive: 20.6 µM [rising, single point]"
CCC(=Cc1ccccc1O)c1ccncc1,inactive: 3.88%,–
Nc1nc(NCc2ccc(Cl)cc2Cl)c2[nH]cnc2n1,–,"inconclusive: 29.1 µM [rising, single point]"
COC(=O)C1=C(C)N(CC2CC2)C(=NCc2cccc(C(F)(F)F)c2)N[C@H]1c1ccccc1,inactive: 18.6%,–
Cc1cc(C)cc(OC(=O)c2snnc2C)c1,inactive: 2.64%,–
N#Cc1ccccc1OCc1cccc(S(=O)(=O)N2CCOCC2)c1,inactive: 7.89%,–
CCOCCCNC(=O)C(c1ccc(C)cc1)N(Cc1cccs1)C(=O)c1ccccn1 (centres undefined),–,"inconclusive: 3.26 µM [cytotoxic, full curve, poor fit]"
Oc1ccc(CN2CCCc3ccccc32)c2cccnc12,–,"inconclusive: 29.1 µM [cytotoxic, single point]"
O=C(NCC1CCCO1)C1CCN(S(=O)(=O)c2cccc3cccnc23)CC1 (centres undefined),–,"inconclusive: 29.1 µM [rising, partial curve, poor fit]"
C(=C\c1ccccc1)/CN1CCN(C(c2cc3ccccc3o2)c2nnnn2C2CCCCC2)CC1 (centres undefined),inactive: 0%,–
O=C(C1CCCCC1C(=O)N1CCCCC1)N1CCCCC1 (centres undefined),–,"inconclusive: 5.17 µM [cytotoxic, full curve]"
COc1ccccc1Nc1nc(NCc2ccco2)nc(N)c1[N+](=O)[O-],–,"inconclusive: 16.4 µM [cytotoxic, single point]"
CC(NC(=O)C1CCN(C(=O)c2ccc(F)cc2)CC1)c1ccc(-n2ccnc2)cc1 (centres undefined),–,"inconclusive: 13 µM [rising, partial curve, poor fit]"
COc1cccc(CNS(=O)(=O)c2c(C(=O)N3CCCCCC3)c(C)n(C)c2C)c1,–,"inconclusive: 9.2 µM [cytotoxic, partial curve, poor fit]"
COC(=O)C1=C(C)NC(C)=C(C(=O)OC)C1C(=O)OCC(=O)NC1CCCCC1C (centres undefined),inactive: -1.37%,–
CCOC(=O)C1(Cc2cccc(OC)c2)CCCN(C(=O)c2ccccc2C)C1 (centres undefined),–,"inconclusive: 5.17 µM [cytotoxic, partial curve, poor fit]"
Cc1cnc(C(=O)OCC(=O)Nc2oc(-c3ccccc3)c(-c3ccccc3)c2C#N)cn1,–,"inconclusive: 29.1 µM [cytotoxic, single point]"
CC(C)CC(N)c1csc(Nc2ccccn2)n1 (centres undefined),inactive: -1.34%,–

SMILES,"activity change, negative = cytotoxicity",Potency
CCC(=O)NC(c1cc(Cl)c2cccnc2c1O)C1CC1 (centres undefined),–,"inconclusive: 20.6 µM [cytotoxic, single point]"
O=C(O)CCc1nc(-c2ccccc2)no1,inactive: 17.8%,–
Cc1ccc(-c2noc(CN3C(C)CCCC3C)n2)cc1 (centres undefined),–,"inconclusive: 29.1 µM [rising, single point]"
O=C(Nc1c[nH]c(=O)[nH]c1=O)c1cccc(F)c1,–,"inconclusive: 29.1 µM [cytotoxic, single point]"
CCCCCCc1cc2cc(C(=O)Nc3ccccc3OC)c(=O)oc2cc1O,–,"inconclusive: 10.3 µM [cytotoxic, partial curve]"
Cc1cccc(NC(=O)/C=C/c2ccc3c(c2)OCO3)n1,–,"inconclusive: 16.4 µM [cytotoxic, partial curve]"
Cc1cccc(NC(=S)NC2CCN(Cc3ccccc3)CC2)c1C,inactive: 0%,–
CCC(Sc1nnc(-c2ccc(C)c(Cl)c2)n1CC)C(=O)Nc1nccs1 (centres undefined),–,"inconclusive: 10.3 µM [cytotoxic, partial curve, poor fit]"
CN(CC(=O)Nc1ccc(Cl)c(C(F)(F)F)c1)Cc1cc(=O)n2ccsc2n1,–,"inconclusive: 20.6 µM [cytotoxic, single point]"
COC(=O)c1cccc(NC(=O)CSc2nc3cccnc3n2C)c1,–,active: 18.4 µM
COc1cc(NS(=O)(=O)c2ccc(NC(=S)NC(C)=O)cc2)nc(OC)n1,–,"inconclusive: 29.1 µM [cytotoxic, single point]"
COc1cccc(OCCNC(=O)c2ccccc2Sc2ccccc2C#N)c1,–,"inconclusive: 23.1 µM [cytotoxic, single point]"
O=C1NC(c2cccc(OCc3ccccc3)c2)Nc2ccccc21 (centres undefined),–,active: 0.651 µM
CCN(CC)CCOc1nnc(-c2ccc(C)cc2)c2ccccc12,–,"inconclusive: 23.1 µM [cytotoxic, single point]"
COC(=O)c1[nH]c2c(c1C)C(=O)CC(c1ccc(C)cc1)C2 (centres undefined),–,"inconclusive: 16.4 µM [cytotoxic, partial curve, poor fit]"
Cc1csc(=Nc2c(C)n(C)n(-c3ccccc3)c2=O)n1Cc1ccccc1,–,inactive
COc1ccc(C)cc1S(=O)(=O)N1CCN(S(=O)(=O)c2cc(C)ccc2OC)CC1,–,"inconclusive: 4.61 µM [cytotoxic, partial curve]"
COc1ccc(C2(CNC(=O)C(c3ccccc3)c3ccccc3)CCOCC2)cc1OC,–,"inconclusive: 29.1 µM [cytotoxic, single point]"
Cc1cc2ccccn2c1C(=O)c1ccc([N+](=O)[O-])cc1[N+](=O)[O-],inactive: -5.38%,–
CCOc1ccc(C(C(=O)NCC2CCCO2)N(C(=O)c2snc(C(N)=O)c2N)c2ccc3c(c2)OCCO3)cc1 (centres undefined),–,"inconclusive: 10.3 µM [rising, single point]"
O=C(NCCN1CCN(C(=O)c2cccc(Br)c2)CC1)C(=O)Nc1ccc(Br)cc1,–,"inconclusive: 14.6 µM [cytotoxic, single point]"
COCCn1c(=O)[nH]c2cc(C(=O)NCCN3CCN(c4ccccc4)CC3)ccc2c1=O,inactive: 2.73%,–
Cc1ccc(N2C(=O)C(CC(=O)Nc3cccc(F)c3)N(CCc3ccncc3)C2=O)cc1 (centres undefined),–,"inconclusive: 16.4 µM [cytotoxic, partial curve]"
